Results are given in words; binding and its absence hold for the method and conditions named. Some binding calls cover weakened binding; strength is not graded here.
Biological target: V domain of human CD33 (human) (UniProt P20138)
Assay: SPR, Fab captured, 37 C

Protein sequences, listed by entry. Tags and fused reporters are not part of them. Lines headed by an entry give the natural chain unless they say otherwise; changes in a name come on top.
UniProt P20138: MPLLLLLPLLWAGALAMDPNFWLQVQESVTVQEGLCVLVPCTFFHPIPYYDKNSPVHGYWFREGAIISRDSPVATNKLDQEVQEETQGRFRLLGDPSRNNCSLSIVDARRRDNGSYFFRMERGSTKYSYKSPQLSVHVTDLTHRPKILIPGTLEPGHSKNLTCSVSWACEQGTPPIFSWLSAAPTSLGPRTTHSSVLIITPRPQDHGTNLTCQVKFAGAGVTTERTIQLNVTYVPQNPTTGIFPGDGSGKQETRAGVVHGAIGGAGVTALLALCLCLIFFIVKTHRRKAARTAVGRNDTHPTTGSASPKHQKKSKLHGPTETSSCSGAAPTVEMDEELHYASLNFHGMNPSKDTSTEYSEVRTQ

| binding | Binder |
| --- | --- |
| binds | ADI-11809 Fab (Fab, V domains shown) VH: EVQLVESGGGLVQPGGSLRLSCAASGFTFPSYWMSWVRQAPGKGLEWVATIKRDGSEKGYVDSVKGRFTISRDNAKNSLYLQMNSLRAEDTAVYYCARPLNAGELDVWGQGTMVTVSS VL: DIQMTQSPSTLSASVGDRVTITCRASQSISSWLAWYQQKPGKAPKLLIYEASSLESGVPSRFSGSGSGTEFTLTISSLQPDDFATYYCQQSQSYPPITFGGGTKVEIK |
| binds | ADI-11819 Fab (Fab, V domains shown) VH: EVQLVESGGGLVKPGGSLRLSCAASGFTFSSYAMSWVRQAPGKGLEWVSSISSSSEGIYYADSVKGRFTISRDNAKNSLYLQMNSLRAEDTAVYYCAREGGPYYDSSGYFVYYGMDVWGQGTTVTVSS VL: DIQMTQSPSTLSASVGDRVTITCRASNSISSWLAWYQQKPGKAPKLLIYEASSTKSGVPSRFSGSGSGTEFTLTISSLQPDDFATYYCQQYDDLPTFGGGTKVEIK |
| binds | ADI-10157 Fab (Fab, V domains shown) VH: QVQLQESGPGLVKPSETLSLTCTVSGGSISSYYWSWIRQPPGKGLEWIGSIYYSGSTNYNPSLKSRVTISVDTSKNQFSLKLSSVTAADTAVYYCARVGGVYSTIETYGMDVWGQGTTVTVSS VL: EIVMTQSPATLSVSPGERATLSCRASQSVSSNLAWYQQKPGQAPRLLIYGASTRATGIPARFSGSGSGTEFTLTISSLQSEDFAVYYCQQYTVYPPTFGGGTKVEIK |

— US20200376034A1
